Measured values as given in PMC3254606.
These are yes or no findings as the source states them, for the method shown. Some results given as binding are weak or reduced against the parent protein; the word gives no strength.

Sequences of proteins named here, by UniProt entry; tags and fusion partners are left off. Residues count along the entry.
UniProt P00519, residues 61-121: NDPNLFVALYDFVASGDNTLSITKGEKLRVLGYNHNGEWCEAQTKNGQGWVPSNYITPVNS
UniProt P54094: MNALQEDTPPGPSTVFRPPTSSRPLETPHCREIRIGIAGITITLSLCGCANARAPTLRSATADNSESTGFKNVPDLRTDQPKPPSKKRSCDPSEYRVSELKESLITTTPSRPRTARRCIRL

Biological target: SH3 domain of Abl (UniProt P00519)
Test: peptide or protein array; TransSignal SH3 Domain Array1 probed with apoptin; preliminary experiment, data not shown; called highly stringent

apoptin (probe of the SH3 domain array) (from UniProt P54094 1-121)
binding: binds
